Patent US20250000812A1, “NANO-SUSPENSIONS AND AMORPHOUS SOLID DISPERSIONS OF HYDROPHOBIC AGENTS AND METHODS OF USE THEREOF” (Genentech, Inc., priority 2022, published 2025)

Test: Drug concentration (deposition) analysis of printed pattern by HPLC
Details: after thermal inkjet printing
Procedure: Drug concentration analyses were performed on the printed nano-suspension pattern from Example 2 using a high performance liquid chromatography (HPLC) system equipped with a quaternary pump, a photodiode array UV-Vis detector, and a reversed-phase alkylsilane column (3.5 μm particle size, 50×4.6 mm dimension). The printed patterns from Example 2 were cut and were then washed and fully dissolved with 1:1 acetonitrile:water. The resulting solutions were then analyzed by HPLC with drug concentrations compared to standards of known concentration. The mobile phases of the HPLC process consisted of 0.05% trifluoroacetic acid in water and in acetonotrile. A gradient elution was utilized with the acetonitrile mobile phase increasing from 2 to 65% over 6.5 min at a flow rate of 1.25 mL/min. The column was heated at 30° C. and the detection was carried out at 254 nm.

Question: For `COc1ccc2cc([C@H](C)C(=O)O)ccc2c1` [naproxen, Naproxen], which “stability throughout the inkjet printing process (degradants or impurities by HPLC)” value is on record?
Answer: no presence of degradants or other impurities
